# Experimental data: the supplement of paper PMC8728848
# Some of the results follow.
# B1: SUN4P (Saccharomyces cerevisiae), P53616 (protein)
# chain: MGSSHHHHHHSSGLVPRGSHNGSIYGDLADFSGPYEKFEDGTIPCGQFPSGQGVIPISWLDEGGWSGVENTDTSTGGSCKEGSYCSYACQPGMSKTQWPSDQPSDGRSIGGLLCKDGYLYRSNTDTDYLCEWGVDAAYVVSELSNDVAICLTDYPGTENMVIPTYVQAGDSLPLTVVDQDTYYTWQGLKTSAQYYVNNAGISVEDACVWGSSSSGVGNWAPLNFGAGSSDGVAYLSLIPNPNNGNALNFNVKIVAADDSSTVNGECIYENGSFSGGSDGCTVSVTAGKAKFVLYN
# What was measured:
# Assay in all cases: glycan array binding signal (z-score within array); higher = stronger binding
# Conditions in all cases: glycan notation: IUPAC condensed, linker removed; mutation: R276L
# [1] = target: Gal(b1-4)GlcNAc(b1-2)Man(a1-6)[GlcNAc(b1-2)Man(a1-3)]Man(b1-4)GlcNAc(b1-4)GlcNAc
# Method in brief: (§1)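 The Consortium for Functional Glycomics database supplied 3228 glycan arrays, of which those lacking an available protein sequence were dropped. The binding signal, a within-array Z-score, was averaged across arrays of the same protein sequence and across linkers. Negative scores can be read as non-binding.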
# [2] = target: Gal(b1-4)GlcNAc(b1-2)Man(a1-6)[Man(a1-3)]Man(b1-4)GlcNAc(b1-4)GlcNAc
# Method in brief: as §1
# [3] = target: Gal(b1-4)GlcNAc(b1-2)[Gal(b1-4)GlcNAc(b1-4)]Man(a1-3)[Gal(b1-4)GlcNAc(b1-2)Man(a1-6)]Man(b1-4)GlcNAc(b1-4)GlcNAc
# Method in brief: as §1
# [4] = target: Gal(b1-4)GlcNAc(b1-2)[Gal(b1-4)GlcNAc(b1-4)]Man(a1-3)[Gal(b1-4)GlcNAc(b1-2)[Gal(b1-4)GlcNAc(b1-6)]Man(a1-6)]Man(b1-4)GlcNAc(b1-4)GlcNAc
# Method in brief: as §1
# [5] = target: Gal(b1-4)GlcNAc(b1-2)[Gal(b1-4)GlcNAc(b1-4)]Man(a1-3)[GlcNAc(b1-4)][Gal(b1-4)GlcNAc(b1-2)Man(a1-6)]Man(b1-4)GlcNAc(b1-4)GlcNAc
# Method in brief: as §1
# [6] = target: Gal(b1-4)GlcNAc(b1-2)[Gal(b1-4)GlcNAc(b1-4)]Man(a1-3)[GlcNAc(b1-4)][Gal(b1-4)GlcNAc(b1-2)[Gal(b1-4)GlcNAc(b1-6)]Man(a1-6)]Man(b1-4)GlcNAc(b1-4)GlcNAc
# Method in brief: as §1
# [7] = target: Gal(b1-4)GlcNAc(b1-2)[Gal(b1-4)GlcNAc(b1-6)]Man(a1-6)[Gal(b1-4)GlcNAc(b1-2)Man(a1-3)]Man(b1-4)GlcNAc(b1-4)GlcNAc
# Method in brief: as §1
# [8] = target: Gal(b1-4)GlcNAc(b1-2)[Gal(b1-4)GlcNAc(b1-6)]Man(a1-6)[Gal(b1-4)GlcNAc(b1-2)Man(a1-3)]Man(b1-4)GlcNAc(b1-4)[Fuc(a1-6)]GlcNAc
# Method in brief: as §1
# [9] = target: Gal(b1-4)GlcNAc(b1-2)[Gal(b1-4)GlcNAc(b1-6)]Man(a1-6)[GlcNAc(b1-4)][Gal(b1-4)GlcNAc(b1-2)Man(a1-3)]Man(b1-4)GlcNAc(b1-4)GlcNAc
# Method in brief: as §1
# [10] = target: Gal(b1-4)GlcNAc(b1-2)[Gal(b1-4)GlcNAc(b1-6)]Man(a1-6)[GlcNAc(b1-4)][Gal(b1-4)GlcNAc(b1-2)[Gal(b1-4)GlcNAc(b1-4)]Man(a1-3)]Man(b1-4)GlcNAc(b1-4)[Fuc(a1-6)]GlcNAc
# Method in brief: as §1
# [11] = target: Gal(b1-4)GlcNAc(b1-3)Gal(b1-3)GalNAc
# Method in brief: as §1
# [12] = target: Gal(b1-4)GlcNAc(b1-3)Gal(b1-3)GlcNAc
# Method in brief: as §1
# [13] = target: Gal(b1-4)GlcNAc(b1-3)Gal(b1-4)Glc
# Method in brief: as §1
# [14] = target: Gal(b1-4)GlcNAc(b1-3)Gal(b1-4)GlcNAc
# Method in brief: as §1
# [15] = target: Gal(b1-4)GlcNAc(b1-3)Gal(b1-4)GlcNAc(b1-2)Man(a1-3)[Gal(b1-4)GlcNAc(b1-3)Gal(b1-4)GlcNAc(b1-2)Man(a1-6)]Man(b1-4)GlcNAc(b1-4)GlcNAc
# Method in brief: as §1
# [16] = target: Gal(b1-4)GlcNAc(b1-3)Gal(b1-4)GlcNAc(b1-2)Man(a1-3)[Gal(b1-4)GlcNAc(b1-3)Gal(b1-4)GlcNAc(b1-2)Man(a1-6)]Man(b1-4)GlcNAc(b1-4)[Fuc(a1-6)]GlcNAc
# Method in brief: as §1
# [17] = target: Gal(b1-4)GlcNAc(b1-3)Gal(b1-4)GlcNAc(b1-2)[Gal(b1-4)GlcNAc(b1-3)Gal(b1-4)GlcNAc(b1-6)]Man(a1-6)[Gal(b1-4)GlcNAc(b1-3)Gal(b1-4)GlcNAc(b1-2)Man(a1-3)]Man(b1-4)GlcNAc(b1-4)GlcNAc
# Method in brief: as §1
# [18] = target: Gal(b1-4)GlcNAc(b1-3)Gal(b1-4)GlcNAc(b1-2)[Gal(b1-4)GlcNAc(b1-3)Gal(b1-4)GlcNAc(b1-6)]Man(a1-6)[Gal(b1-4)GlcNAc(b1-3)Gal(b1-4)GlcNAc(b1-2)Man(a1-3)]Man(b1-4)GlcNAc(b1-4)[Fuc(a1-6)]GlcNAc
# Method in brief: as §1
# [19] = target: Gal(b1-4)GlcNAc(b1-3)Gal(b1-4)GlcNAc(b1-3)Gal(b1-4)GlcNAc
# Method in brief: as §1
# [20] = target: Gal(b1-4)GlcNAc(b1-3)Gal(b1-4)GlcNAc(b1-3)Gal(b1-4)GlcNAc(b1-2)Man(a1-3)[Gal(b1-4)GlcNAc(b1-3)Gal(b1-4)GlcNAc(b1-3)Gal(b1-4)GlcNAc(b1-2)Man(a1-6)]Man(b1-4)GlcNAc(b1-4)GlcNAc
# Method in brief: as §1
# [21] = target: Gal(b1-4)GlcNAc(b1-3)Gal(b1-4)GlcNAc(b1-3)Gal(b1-4)GlcNAc(b1-2)Man(a1-3)[Gal(b1-4)GlcNAc(b1-3)Gal(b1-4)GlcNAc(b1-3)Gal(b1-4)GlcNAc(b1-2)Man(a1-6)]Man(b1-4)GlcNAc(b1-4)[Fuc(a1-6)]GlcNAc
# Method in brief: as §1
# [22] = target: Gal(b1-4)GlcNAc(b1-3)Gal(b1-4)GlcNAc(b1-3)Gal(b1-4)GlcNAc(b1-2)[Gal(b1-4)GlcNAc(b1-3)Gal(b1-4)GlcNAc(b1-3)Gal(b1-4)GlcNAc(b1-6)]Man(a1-6)[Gal(b1-4)GlcNAc(b1-3)Gal(b1-4)GlcNAc(b1-3)Gal(b1-4)GlcNAc(b1-2)Man(a1-3)]Man(b1-4)GlcNAc(b1-4)[Fuc(a1-6)]GlcNAc
# Method in brief: as §1
binder,measurement,setting,value
B1,glycan array binding signal (z-score),[1],0.524
same,glycan array binding signal (z-score),[2],1.25
same,glycan array binding signal (z-score),[3],0.302
same,glycan array binding signal (z-score),[4],-0.954
same,glycan array binding signal (z-score),[5],0.132
same,glycan array binding signal (z-score),[6],0.051
same,glycan array binding signal (z-score),[7],-0.913
same,glycan array binding signal (z-score),[8],0.327
same,glycan array binding signal (z-score),[9],0.11
same,glycan array binding signal (z-score),[10],-0.684
same,glycan array binding signal (z-score),[11],-0.63
same,glycan array binding signal (z-score),[12],-0.369
same,glycan array binding signal (z-score),[13],-0.177
same,glycan array binding signal (z-score),[14],0.623
same,glycan array binding signal (z-score),[15],0.48
same,glycan array binding signal (z-score),[16],0.794
same,glycan array binding signal (z-score),[17],-0.671
same,glycan array binding signal (z-score),[18],-0.371
same,glycan array binding signal (z-score),[19],1.48
same,glycan array binding signal (z-score),[20],0.667
same,glycan array binding signal (z-score),[21],0.956
same,glycan array binding signal (z-score),[22],2.41

# As a working copy, part of the list above.
binder,measurement,setting,value
B1,glycan array binding signal (z-score),[6],0.051
same,glycan array binding signal (z-score),[7],-0.913
